From patent publication US20130090249A1 come the findings set out here.

Results are given in words; binding and its absence hold for the method and conditions named. Some results given as binding are weak or reduced against the parent protein; the word gives no strength. Sequences can lack the tags named with a protein.

Assay [1] addresses T1, Lingo-4-YFP (human) (UniProt Q6UY18).
T1 sequence: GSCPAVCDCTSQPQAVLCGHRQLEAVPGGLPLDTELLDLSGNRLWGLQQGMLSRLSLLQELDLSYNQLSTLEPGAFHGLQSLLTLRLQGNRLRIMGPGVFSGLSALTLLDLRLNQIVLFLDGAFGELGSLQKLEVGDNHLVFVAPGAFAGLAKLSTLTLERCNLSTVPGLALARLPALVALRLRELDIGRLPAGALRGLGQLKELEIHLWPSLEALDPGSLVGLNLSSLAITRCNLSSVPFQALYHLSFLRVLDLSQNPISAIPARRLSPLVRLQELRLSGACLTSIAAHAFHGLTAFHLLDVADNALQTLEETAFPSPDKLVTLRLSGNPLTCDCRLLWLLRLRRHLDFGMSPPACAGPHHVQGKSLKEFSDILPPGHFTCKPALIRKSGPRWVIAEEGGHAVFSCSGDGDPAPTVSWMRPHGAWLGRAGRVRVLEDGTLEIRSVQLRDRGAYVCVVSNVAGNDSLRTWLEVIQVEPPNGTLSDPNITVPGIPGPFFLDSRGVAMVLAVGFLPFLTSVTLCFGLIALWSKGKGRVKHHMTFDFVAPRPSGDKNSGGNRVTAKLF
The experiment in a line: BRET saturation in live HEK-293 cells, 96-well plates.

In assay [2] the target is T2, Lingo-3-YFP (human) (UniProt P0C6S8).
T2 sequence: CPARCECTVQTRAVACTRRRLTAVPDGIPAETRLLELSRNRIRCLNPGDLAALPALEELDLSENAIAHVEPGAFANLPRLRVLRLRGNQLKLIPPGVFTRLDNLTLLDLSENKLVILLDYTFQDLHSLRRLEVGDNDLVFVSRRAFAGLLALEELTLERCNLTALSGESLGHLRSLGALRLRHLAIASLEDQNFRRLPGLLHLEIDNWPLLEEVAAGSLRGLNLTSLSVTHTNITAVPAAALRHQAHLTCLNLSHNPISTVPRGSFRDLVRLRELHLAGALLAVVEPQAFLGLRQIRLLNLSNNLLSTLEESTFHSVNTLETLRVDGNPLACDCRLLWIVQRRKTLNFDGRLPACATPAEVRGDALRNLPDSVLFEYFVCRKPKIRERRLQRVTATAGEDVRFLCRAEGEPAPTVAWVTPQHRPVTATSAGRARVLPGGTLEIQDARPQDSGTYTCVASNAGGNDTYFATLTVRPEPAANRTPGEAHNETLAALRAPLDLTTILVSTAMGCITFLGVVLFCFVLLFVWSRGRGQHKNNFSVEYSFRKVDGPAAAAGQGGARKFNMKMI
The description is as above.

B1: Lingo-4-RLuc (protein, not shown: large carriers)
chain: T1 sequence
Take B1: in assay [1], the binding result was “binds”.

B2: Lingo-3-RLuc (protein, not shown: large carriers)
chain: T2 sequence
For the molecule B2, the binding entry in assay [2] is on record as “binds”.
